# Patent US20210214458A1 (ONCOC4, published 2021)
# Results are given in words; binding and its absence hold for the method and conditions named. Some entries that bind do so weakly or less than the wild type.
# B1: CD24 peptide 4 (peptide)
# peptide: SNSGLAPNPT
# Assays:
# [1] = target: anti-CD24 monoclonal antibody 3B6; assay: peptide inhibition assay (FIG. 9)
# [2] = target: anti-CD24 monoclonal antibody 3B6; assay: peptide inhibition ELISA: peptide pre-incubated with 3B6, plate coated with deglycosylated CD24Fc
binder,measurement,setting,value
B1,binding,[1],binds
same,binding,[2],binds
